Data as given in PMC7020344.
These are yes or no findings as the source states them, for the method shown. Binding seen in cells or lysates may run through a third protein. Some entries that bind do so weakly or less than the wild type.

The chains behind the UniProt entries cited, without tags or fusion partners.
UniProt P40763: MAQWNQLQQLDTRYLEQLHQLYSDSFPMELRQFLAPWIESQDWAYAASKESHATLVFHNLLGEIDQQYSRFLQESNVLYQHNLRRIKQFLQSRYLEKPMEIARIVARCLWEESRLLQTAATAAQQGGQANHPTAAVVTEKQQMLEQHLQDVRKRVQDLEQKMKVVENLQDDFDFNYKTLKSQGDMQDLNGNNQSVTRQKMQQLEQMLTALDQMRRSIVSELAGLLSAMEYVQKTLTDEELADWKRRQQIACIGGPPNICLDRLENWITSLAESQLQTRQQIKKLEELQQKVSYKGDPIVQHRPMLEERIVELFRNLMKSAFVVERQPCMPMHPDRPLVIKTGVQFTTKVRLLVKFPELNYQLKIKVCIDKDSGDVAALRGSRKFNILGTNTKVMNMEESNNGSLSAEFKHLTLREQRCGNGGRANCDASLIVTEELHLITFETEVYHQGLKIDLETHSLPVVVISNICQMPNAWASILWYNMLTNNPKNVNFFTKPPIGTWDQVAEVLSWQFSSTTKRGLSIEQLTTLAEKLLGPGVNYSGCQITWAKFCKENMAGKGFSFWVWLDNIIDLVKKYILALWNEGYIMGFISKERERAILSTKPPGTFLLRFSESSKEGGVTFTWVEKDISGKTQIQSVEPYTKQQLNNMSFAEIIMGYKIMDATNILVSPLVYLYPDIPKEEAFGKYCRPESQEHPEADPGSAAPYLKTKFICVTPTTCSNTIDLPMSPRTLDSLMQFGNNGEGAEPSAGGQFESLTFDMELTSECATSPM

Molecular target: T1, Eukaryotic elongation factor-2 kinase (human (endogenous in A549)) (UniProt O00418)
T1 sequence: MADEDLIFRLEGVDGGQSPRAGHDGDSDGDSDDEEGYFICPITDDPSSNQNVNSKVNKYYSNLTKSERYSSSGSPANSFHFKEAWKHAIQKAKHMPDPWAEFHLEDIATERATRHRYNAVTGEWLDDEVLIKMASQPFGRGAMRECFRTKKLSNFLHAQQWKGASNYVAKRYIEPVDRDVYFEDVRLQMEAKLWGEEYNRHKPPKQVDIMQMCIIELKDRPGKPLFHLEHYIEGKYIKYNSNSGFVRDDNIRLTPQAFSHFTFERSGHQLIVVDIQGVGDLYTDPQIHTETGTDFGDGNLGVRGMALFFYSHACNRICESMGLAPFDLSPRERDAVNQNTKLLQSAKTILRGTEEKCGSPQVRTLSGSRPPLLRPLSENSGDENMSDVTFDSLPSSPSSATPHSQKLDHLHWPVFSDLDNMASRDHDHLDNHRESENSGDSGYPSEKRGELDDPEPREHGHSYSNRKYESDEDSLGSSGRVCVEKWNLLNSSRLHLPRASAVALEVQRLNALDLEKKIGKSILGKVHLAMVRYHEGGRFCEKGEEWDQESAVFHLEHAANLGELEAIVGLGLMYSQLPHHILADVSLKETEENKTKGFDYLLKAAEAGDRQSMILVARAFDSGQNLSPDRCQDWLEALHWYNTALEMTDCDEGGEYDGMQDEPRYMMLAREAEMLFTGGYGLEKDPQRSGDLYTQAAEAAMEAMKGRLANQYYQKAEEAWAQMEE
Assay: co-IP; A549 cell lysates incubated overnight at 4 °C with eEF2K antibody (Santa Cruz, sc-393,366), protein A/G agarose; washed with 50 mM Tris pH 7.5, 150 mM NaCl, 1% Triton-X; immunoblot

## signal transducer and activator of transcription 3 (from UniProt P40763 1-770)
  binding: binds
